{"source": "paper PMC9430589", "molecular_target": "T1, C-terminus His6-tagged PNPase (polynucleotide phosphorylase, DR_2063) of D. radiodurans (D. radiodurans) (UniProt Q9RSR1)", "T1 sequence": "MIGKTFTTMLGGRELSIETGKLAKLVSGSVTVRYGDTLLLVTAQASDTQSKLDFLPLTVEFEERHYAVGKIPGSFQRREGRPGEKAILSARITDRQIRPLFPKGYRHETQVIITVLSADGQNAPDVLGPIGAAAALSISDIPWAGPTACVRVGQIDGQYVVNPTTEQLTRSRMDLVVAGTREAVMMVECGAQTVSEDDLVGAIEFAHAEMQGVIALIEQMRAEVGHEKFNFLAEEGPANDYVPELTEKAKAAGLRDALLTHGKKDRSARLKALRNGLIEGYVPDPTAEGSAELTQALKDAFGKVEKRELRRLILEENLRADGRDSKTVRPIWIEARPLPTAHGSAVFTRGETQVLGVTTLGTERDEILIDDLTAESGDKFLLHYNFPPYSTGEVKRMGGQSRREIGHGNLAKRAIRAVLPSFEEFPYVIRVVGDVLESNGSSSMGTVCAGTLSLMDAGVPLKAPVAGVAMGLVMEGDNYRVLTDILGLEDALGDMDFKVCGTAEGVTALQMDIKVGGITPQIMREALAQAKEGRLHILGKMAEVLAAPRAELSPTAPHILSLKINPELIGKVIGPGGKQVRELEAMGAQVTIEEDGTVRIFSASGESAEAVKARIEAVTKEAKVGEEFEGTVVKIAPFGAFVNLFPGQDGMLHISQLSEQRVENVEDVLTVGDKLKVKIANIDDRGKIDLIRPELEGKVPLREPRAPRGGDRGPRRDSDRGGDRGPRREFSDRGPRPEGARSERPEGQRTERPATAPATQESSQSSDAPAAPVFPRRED", "assay": "co-IP; C-terminal His6-tagged PNPase from pRADgro as bait in D. radiodurans strains with chromosomal 3×FLAG-tagged RhlB, RpsA or Rho; formaldehyde cross-linking, sonication; 500 μg lysate treated with or without RNase A and T1, then Ni-NTA magnetic beads; Western blot with anti-FLAG antibody; His6 tag alone as control", "note": "Results are given in words; binding and its absence hold for the method and conditions named. Binding seen in cells or lysates may run through a third protein. Binding calls can cover weak binding; strength is not graded here. Where a sequence is shown, tags or fusion partners need not be part of it."}
{"substance": "RpsA-3×FLAG (chromosomally tagged ribosomal protein S1, DR_1983) (D. radiodurans)", "values": [{"measurement": "binding", "result": "binds"}]}
{"substance": "RhlB-3×FLAG (chromosomally tagged RhlB, DR_0335) (D. radiodurans) (enzyme)", "values": [{"measurement": "binding", "result": "binds"}]}
